From PMC13626733, “Molecular basis of high-torque transmission of the Vibrio polar flagellar motor” (Protein & Cell, 2026) come the findings set out here.

This assay deals with T1, FliF (Vibrio alginolyticus (endogenous in strain KK148 ΔflgL)) (UniProt Q75N27).
T1 sequence: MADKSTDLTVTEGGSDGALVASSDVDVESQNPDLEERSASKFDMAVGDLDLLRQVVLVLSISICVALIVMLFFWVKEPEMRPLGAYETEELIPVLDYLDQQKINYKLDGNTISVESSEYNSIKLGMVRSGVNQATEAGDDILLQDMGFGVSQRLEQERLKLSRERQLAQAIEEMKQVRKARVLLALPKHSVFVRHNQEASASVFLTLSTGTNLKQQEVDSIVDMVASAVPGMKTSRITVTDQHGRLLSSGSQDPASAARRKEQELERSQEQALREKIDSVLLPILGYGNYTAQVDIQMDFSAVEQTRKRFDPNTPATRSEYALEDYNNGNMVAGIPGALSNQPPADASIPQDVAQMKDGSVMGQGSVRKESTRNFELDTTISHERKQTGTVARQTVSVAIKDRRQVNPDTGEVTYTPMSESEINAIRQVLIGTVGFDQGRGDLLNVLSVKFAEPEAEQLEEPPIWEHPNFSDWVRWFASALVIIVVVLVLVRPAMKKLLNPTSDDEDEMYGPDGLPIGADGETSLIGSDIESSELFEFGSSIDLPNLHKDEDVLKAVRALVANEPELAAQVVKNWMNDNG
The assay is described as follows: cryo-EM structure; polar flagellar motor-hook complex purified as a whole from V. alginolyticus KK148 ΔflgL; local refinements of the LPHT ring, hook, rod, export apparatus and MS ring; LPHT ring particles also obtained by disassembling the complex at reduced salt; both purified.

These are yes or no findings as the source states them, for the method shown. Some entries that bind do so weakly or less than the wild type.

B1: FlgC (protein, UniProt A0A0G9LZH2 1-137)
chain: MSLFNVFNVTGSAMSAESVRLNTTSSNLANADSVSSSAKDTYKARHAVFGAELSNAMRGGDTVPVKVMGIVESDKPLSAEYNPDHPLANEEGYIYKPNVNVMEEMANMISASRAYQTNVQVADSSKQMLLRTLQMGQ
In the case of B1, the binding result is on record as “binds”.
